Measured values published in US20080146987A1, “TREATMENT OF A SKIN CONDITION USING A PIPERINE-BASED COMPOSITION IN CONJUNCTION WITH IRRADIATION” (OREGON HEALTH & SCIENCE UNIVERSITY, priority 2006, published 2008).
At least one structure is not confirmed: it was looked up by name or label, or the drawing left a doubt.

Sequences of proteins named here, by UniProt entry; tags and fusion partners are left off. Residues count along the entry.
UniProt P02768, 25-609: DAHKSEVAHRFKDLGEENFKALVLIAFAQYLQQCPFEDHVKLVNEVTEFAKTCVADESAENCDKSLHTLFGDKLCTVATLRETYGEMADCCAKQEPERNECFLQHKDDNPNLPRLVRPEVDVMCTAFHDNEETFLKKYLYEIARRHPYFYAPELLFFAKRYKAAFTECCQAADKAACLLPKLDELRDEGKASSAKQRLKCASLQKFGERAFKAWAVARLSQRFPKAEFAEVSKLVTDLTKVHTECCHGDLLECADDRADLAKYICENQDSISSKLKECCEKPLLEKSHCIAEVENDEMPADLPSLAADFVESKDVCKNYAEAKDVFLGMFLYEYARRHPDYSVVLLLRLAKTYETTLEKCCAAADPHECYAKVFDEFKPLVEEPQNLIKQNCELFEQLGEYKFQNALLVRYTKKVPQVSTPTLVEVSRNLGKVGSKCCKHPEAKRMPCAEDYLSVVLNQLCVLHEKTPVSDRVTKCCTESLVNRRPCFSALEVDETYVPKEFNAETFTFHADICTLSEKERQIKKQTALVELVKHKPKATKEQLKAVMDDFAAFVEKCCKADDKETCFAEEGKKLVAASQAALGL

Experiments:
[1] = system: Deoxyribonucleic acid (DNA); test: circular dichroism / linear dichroism binding to DNA before and after irradiation; settings: piperine 100 μM, DNA 500 μM, before or after UVA/SSR irradiation
[2] = biological target: human serum albumin (HSA) (Homo sapiens, UniProt P02768); test: circular dichroism binding to HSA before and after irradiation
melan-a cells = test: melan-a cell proliferation (SRB) and dendrite formation; format: cell-based, mouse
[3] = system: HRA.HRII-c/+/Skh hairless pigmented mice; test: DOPA staining / histology of epidermal biopsies (melanocyte number, melanization); format: in vivo
[4] = system: HRA.HRII-c/+/Skh hairless pigmented mice; test: visual pigmentation score after topical compounds with or without UVB, 13-week protocols; format: in vivo; settings: for skin pigmentation in vivo after continuous topical application: HRA/Skh-II mice, four or more weeks
Experimental: Male and female inbred HRA.HRII-c/+/Skh hairless pigmented mice, age-matched (8-16 weeks old), were used in the following in vivo experiments for evaluation of pigmentation induced by piperine and/or UVR.
In one experiment, the compounds used included piperine, THP, CHP, and RCHP, each prepared in DMSO at a 50 mg/ml concentration, and applied to the backs of mice (n=4) twice daily on weekdays for 13 weeks, as shown in FIG. 3. As shown, Group A received treatment with compounds only from week 1-13. Group B was treated with compound from week 1-13, with additional UVB irradiation from weeks 5-13. Group F received UVB alone (no topical treatment) for 9 weeks, corresponding to weeks 5-13. Groups C, D and E were treated as Group B from weeks 1-7. All treatments was suspended for 3 weeks (8-10) and re-started as topical treatment with compounds only (Group C), UVB only (Group D), or topical treatment with UVB (Group E) from weeks 11-13.
Pigmentation was assessed visually by an investigator blinded to the treatment that the animals had received using the following scoring system: 0—no pigmentation; 1—first signs of pigmentation (spots); 2—light brown; 3—medium brown; 4—dark brown; 5—black. Scores obtained at the end of each week (Friday) are shown in FIG. 4 (piperine noted as PIP). Data from equivalent treatments is combined in FIG. 4; i.e., weeks 1-4 from Groups A to E; weeks 5-7 for Groups B to E; and weeks 7-10 for Groups C to E.

Structure (SMILES) | binding to DNA (CD, confirmed by LD) [1] | binding to HSA (CD) after exposure to UVA or SSR ([2]; UVA 22 J·cm^−2 or SSR 15 J·cm^−2) | binding to HSA (CD) before irradiation ([2]; piperine 100 μM, HSA 500 μM, pH 7.4, unexposed) | cell growth relative to untreated control after SSR exposure (melan-a cells; 10 μM piperine, SSR 0-15 J·cm^−2, 4 days incubation, SRB) | cell growth relative to untreated control after UVA exposure (melan-a cells; 10 μM piperine, UVA 0-124 J·cm^−2, 4 days incubation, SRB) | melanocyte proliferation and dendrite formation (melan-a cells; melan-a cells, relative to untreated sample (FIG. 2A/2B)) | melanocytes (cells/mm^2) with UVB co-treatment ([3]; topical compound plus UVB versus compound alone or UVB alone) | DOPA+ cells / melanocyte proliferation after topical application ([3]; topical compound, epidermal biopsies, versus untreated mice and vehicle) | skin pigmentation in vivo after continuous topical application [4] | pigmentation with compound prior to UVR exposure versus UVR or compounds alone ([4]; topical treatment prior to UVR exposure)
O=C(/C=C/C=C/c1ccc2c(c1)OCO2)N1CCCCC1 [piperine] | No binding | abolished | found to bind | Similar, though less drastic | detrimentally affected | stimulate melanocyte proliferation and dendrite formation | produced more cells/mm^2 than application of the compound alone | melanocyte proliferation was induced | stimulate the development of even skin pigmentation | more rapid and darker pigmentation
O=C(CCCCc1ccc2c(c1)OCO2)N1CCCCC1 [THP, 5-(3,4-methylenedioxyphenyl)-pentanoylpiperidine] |  |  |  |  |  |  |  |  | stimulate the development of even skin pigmentation | 
